Test results reported in PubChem BioAssay AID493014 (National Center for Advancing Translational Sciences (NCATS), 2011).
Among all 340,000 compounds or so, about 170 (0.05%) were called active. The inconclusive results got no clear call from the source; some entries with a clear call stand among them for comparison. Calls come from the whole dose curve; as a rule, active = well fitted inhibition curve with a large enough effect in the signal ratio, with a control signal flat (not every such curve was filed as active); inconclusive = small, poorly fitted or top-dose-only effect, or effect the other way, or a change in a side signal; inactive = flat fitted curve, though single readings scatter; the % refers to the signal ratio. Where the call is inconclusive, the potency comes from a doubtful curve fit.

Experiment: qHTS Assay to Find Inhibitors of Chronic Active B-Cell Receptor Signaling;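 for activity change, negative = inhibition: plate controls were basal doxycycline-induced cells for no effect and cells given 10 µM MG132 for full effect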
Conditions: ABC-DLBCL IkBa-CBG/CBR reporter, luminescence ratio (green luciferase fused to IkBa over red control in TMD8 lymphoma cells), 4 h; activity change, negative = inhibition: at 46.1 µM (top of the series) unless noted
In short: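 TMD8 ABC-DLBCL cells carrying doxycycline-inducible green luciferase fused to IkappaBalpha plus unfused red luciferase were exposed to compounds (up to 46 uM) for 4 hrs at 37C. Activity came from the overlap-corrected green/red luminescence ratio.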
Potency is the fitted concentration of half-maximal effect.

Q: For CCN(CC)/C(N)=N/c1nc(C)cc(C)n1, which “activity change, negative = inhibition” value is on record?
A: inactive: -0.0631%

Q: For Cc1nc(NS(=O)(=O)c2ccccc2)sc1C(=O)N/N=C/c1ccccc1, which activity change, negative = inhibition is on record?
A: inconclusive: -22.2%

Q: With COc1cc(/C=N/N2CCCCC2)cc(OC)c1O as the molecule, how does the activity change, negative = inhibition read?
A: inconclusive: -0.992%

Q: Which activity change, negative = inhibition does the source give for COC(=O)c1sccc1NC(=O)CSc1ccccc1NS(=O)(=O)c1ccccc1Cl here?
A: inconclusive: 10.7%

Q: Which Potency does the source give for Cn1nnnc1Sc1ncnc2scc(-c3cccc(C(F)(F)F)c3)c12 here?
A: inconclusive: 5.8 µM [falling, partial curve, poor fit]

Q: For O=C(N/N=C/c1ccc(Br)o1)c1cc([N+](=O)[O-])cc([N+](=O)[O-])c1, which activity change, negative = inhibition is on record?
A: inconclusive: 8.19%

Q: With CNC(=S)N(CCc1cccc(C)c1)Cc1cc2cc(OC)c(OC)cc2[nH]c1=O as the molecule, how does the “activity change, negative = inhibition” value read?
A: inactive: -11.3%

Q: With CCC1(C)Cc2c(sc3nc(SC)nc(N)c23)CO1 (centres undefined) as the molecule, how does the Potency read?
A: inconclusive: 2.31 µM [rising, full curve, poor fit]

Q: With Cc1ccc(CC(=O)NCc2ccc(F)cc2)cc1 as the molecule, how does the activity change, negative = inhibition read?
A: inconclusive: 1.53%

Q: With O=C(CCc1ccccc1)NCCSCc1c(F)cccc1Cl as the molecule, how does the “activity change, negative = inhibition” value read?
A: inactive: 0.77%

Q: With COc1ccc(OC)c(C(c2c(C)[nH][nH]c2=O)c2c(C)[nH][nH]c2=O)c1 as the molecule, how does the activity change, negative = inhibition read?
A: inconclusive: -3.72%

Q: Which Potency does the source give for COCCNC(=O)C(=O)N/N=C(\C)CC(=O)Nc1cccnc1 here?
A: inconclusive: 35.5 µM [falling, single point]

Q: Which “activity change, negative = inhibition” value does the source give for Cc1ccc(N2CC(C(=O)N3CCC(C(=O)Nc4ccc(Br)cc4)CC3)CC2=O)cc1 (centres undefined) here?
A: inactive: -22%

Q: For Cc1ccc(OCCc2csc(N)n2)cc1, which Potency is on record?
A: inconclusive: 7.94 µM [falling, partial curve]

Q: With CCOC(=O)c1c(NC(NC(C)=O)C(Cl)(Cl)Cl)sc(C(C)=O)c1C (centres undefined) as the molecule, how does the Potency read?
A: inconclusive: 0.562 µM [rising, full curve]

Q: Which activity change, negative = inhibition does the source give for COc1ccc(N2CCN(C3CCCN(C(=O)C4=C(C)OCCO4)C3)CC2)cc1 (centres undefined) here?
A: inconclusive: 1.87%

Q: Which activity change, negative = inhibition does the source give for Nc1nc(-c2ccco2)c(-c2ccco2)s1 here?
A: inconclusive: 2.55%

Q: With NC(=O)c1c(NC(=O)c2cc3ccccc3o2)sc2c1CCC2 as the molecule, how does the Potency read?
A: inconclusive: 5.01 µM [falling, partial curve]

Q: Which activity change, negative = inhibition does the source give for CC1(C)CC(=O)C=C(c2cccc(CO)c2)C1 here?
A: inconclusive: 2.89%

Q: With CCc1ccc(NC(=O)CC2C(=O)Nc3c2c(=O)n(C)c(=O)n3C)cc1 (centres undefined) as the molecule, how does the “activity change, negative = inhibition” value read?
A: inactive: 0.173%

Q: With Cc1ccc(S(=O)(=O)c2ccc(Cl)cc2)cc1S(=O)(=O)N1CCN(C)CC1 as the molecule, how does the activity change, negative = inhibition read?
A: inconclusive: -18.9%

Q: Which “activity change, negative = inhibition” value does the source give for CCOC(=O)N1N=C(c2ccc(OC)cc2)CC1(O)C(F)(F)F (centres undefined) here?
A: inactive: 10.2%

Q: Which activity change, negative = inhibition does the source give for CC(=O)c1sc(-c2cccc(Cl)c2)nc1C here?
A: inconclusive: 4%

Q: Which “activity change, negative = inhibition” value does the source give for CCCCNC(=S)N/N=C1\C(=O)c2cccc3cccc1c23 here?
A: inactive: 5.16%

Q: For Cc1ccnc(NC(=O)Cc2ccc(-c3ccccc3)cc2)c1, which activity change, negative = inhibition is on record?
A: inconclusive: 20.3%

Q: Which activity change, negative = inhibition does the source give for CCOC(=O)COc1ccc2ccccc2c1/C=C/[N+](=O)[O-] here?
A: inconclusive: 1.5%

Q: For COCCN(Cc1nc2ccccc2c(=O)[nH]1)C(=O)COc1cccc(C(C)=O)c1, which “activity change, negative = inhibition” value is on record?
A: inactive: 3.21%

Q: For O=C(NCc1ccccn1)Nc1ccccc1F, which activity change, negative = inhibition is on record?
A: inconclusive: -14.5%

Q: With COc1ccc(CCN(C)C(=O)CCNC(=O)c2ccc(Br)cc2)cc1OC as the molecule, how does the activity change, negative = inhibition read?
A: inconclusive: -0.541%

Q: With O=c1cccc2c1c1cc[nH]c3ccc(=O)n2c31 as the molecule, how does the activity change, negative = inhibition read?
A: inconclusive: 5.27%

Q: With CCOc1ccc(-n2c(=O)c3ccccc3c3ccccc3c2=O)cc1 as the molecule, how does the Potency read?
A: inconclusive: 35.5 µM [falling, single point]

Q: Which activity change, negative = inhibition does the source give for C/C(=N\NC(=O)c1ccccc1[N+](=O)[O-])c1c(O)cc(C)oc1=O here?
A: inconclusive: -14.5%

Q: With COc1ccccc1CNC(=O)COC(=O)c1ccc(C)s1 as the molecule, how does the “activity change, negative = inhibition” value read?
A: inactive: -1.3%

Q: With CCCCCC(=O)Nc1ccc(N2CCN(S(C)(=O)=O)CC2)cc1 as the molecule, how does the activity change, negative = inhibition read?
A: inconclusive: 1.14%

Q: For CCc1noc(C)c1C(=O)N(Cc1ccccc1)c1c(N)n(CCOC)c(=O)[nH]c1=O, which “activity change, negative = inhibition” value is on record?
A: inactive: -0.114%

Q: For Cc1nc2ccc(NC(=O)c3ccc(S(=O)(=O)N(C)c4ccccc4)cc3)cc2s1, which activity change, negative = inhibition is on record?
A: inconclusive: 1.4%

Q: Which “activity change, negative = inhibition” value does the source give for CC1(c2ccccc2)NC(=O)N(CC(=O)Nc2ccc3c(c2)CCC3)C1=O (centres undefined) here?
A: inactive: -0.833%

Q: With CC(C)OCCCNC(=O)C(=O)NCCCOC(C)C as the molecule, how does the Potency read?
A: inconclusive: 1.58 µM [falling, full curve]

Q: With CC(=O)Nc1ccc(NC(=O)c2c(C)nn(Cc3ccccc3)c2Cl)cc1 as the molecule, how does the activity change, negative = inhibition read?
A: inconclusive: -9.39%

Q: With Cc1cc2c(ccc3c2no[n+]3[O-])nn1 as the molecule, how does the activity change, negative = inhibition read?
A: inconclusive: -0.679%

Q: For COc1ccc(-c2cc(C(=O)N3CCN(c4ccccc4)CC3)no2)cc1, which Potency is on record?
A: inconclusive: 11.2 µM [falling, partial curve]

Q: Which Potency does the source give for CCOC(=O)C1=C(C2=CCCCC2)c2ccc(OC)cc2N(S(=O)(=O)C(F)(F)F)C1C(=O)OCC (centres undefined) here?
A: inconclusive: 20.6 µM [falling, single point]

Q: Which activity change, negative = inhibition does the source give for Cc1ccc(S(=O)(=O)CC#CCOC(=O)c2ccc([N+](=O)[O-])cc2)cc1 here?
A: inconclusive: -8.97%

Q: With O=C(COc1ccc2ccccc2c1)Nc1ccc(Cc2ccncc2)cc1 as the molecule, how does the “activity change, negative = inhibition” value read?
A: inactive: -6.49%

Q: For N#Cc1c(-c2ccco2)cc(-c2ccccn2)nc1N, which activity change, negative = inhibition is on record?
A: inconclusive: 14.4%

Q: Which activity change, negative = inhibition does the source give for Cc1cc(C)c(C#N)c(N2CCN(C(=O)C3COc4ccccc4O3)CC2)n1 (centres undefined) here?
A: inconclusive: -0.033%

Q: For CCN(CC)C(=O)c1ccc(S(=O)(=O)N2CCC(c3nc4ccccc4s3)CC2)cc1, which “activity change, negative = inhibition” value is on record?
A: inactive: -4.31%

Q: Which activity change, negative = inhibition does the source give for Cn1cccc1C(=O)C(=O)Nc1ccccc1C(F)(F)F here?
A: inconclusive: 6.69%

Q: For CCn1c(SCC(=O)NCc2ccco2)nc2ccccc2c1=O, which activity change, negative = inhibition is on record?
A: inconclusive: 16.6%

Q: For Cc1ccc(/C=C/c2nnc(-c3cccs3)o2)cc1, which Potency is on record?
A: inconclusive: 2.51 µM [falling, full curve, poor fit]

Q: Which activity change, negative = inhibition does the source give for Nc1ccccc1SCc1ccccc1Cl here?
A: inconclusive: 3.07%

Q: For O=C(COc1cccc(Cl)c1)NCC(c1cccs1)N1CCOCC1 (centres undefined), which activity change, negative = inhibition is on record?
A: inconclusive: -0.554%

Q: For O=C(Nc1cccc(F)c1)c1c(O)c2cccc3c2n(c1=O)CCC3, which activity change, negative = inhibition is on record?
A: inconclusive: 10.8%

Q: For Cc1ccccc1Cn1c(=O)n(CCCC(=O)NCc2ccco2)c(=O)c2sccc21, which Potency is on record?
A: inconclusive: 18.4 µM [falling, partial curve]
